Laboratory results taken from publication PMC11076383.
Results are given in words; binding and its absence hold for the method and conditions named. Binding seen in cells or lysates may run through a third protein. Some results given as binding are weak or reduced against the parent protein; the word gives no strength. Tags and fused reporters may be left off the sequences shown.

Target: T1, GST-GLUT2 fusion protein (UniProt P14246)
T1 sequence: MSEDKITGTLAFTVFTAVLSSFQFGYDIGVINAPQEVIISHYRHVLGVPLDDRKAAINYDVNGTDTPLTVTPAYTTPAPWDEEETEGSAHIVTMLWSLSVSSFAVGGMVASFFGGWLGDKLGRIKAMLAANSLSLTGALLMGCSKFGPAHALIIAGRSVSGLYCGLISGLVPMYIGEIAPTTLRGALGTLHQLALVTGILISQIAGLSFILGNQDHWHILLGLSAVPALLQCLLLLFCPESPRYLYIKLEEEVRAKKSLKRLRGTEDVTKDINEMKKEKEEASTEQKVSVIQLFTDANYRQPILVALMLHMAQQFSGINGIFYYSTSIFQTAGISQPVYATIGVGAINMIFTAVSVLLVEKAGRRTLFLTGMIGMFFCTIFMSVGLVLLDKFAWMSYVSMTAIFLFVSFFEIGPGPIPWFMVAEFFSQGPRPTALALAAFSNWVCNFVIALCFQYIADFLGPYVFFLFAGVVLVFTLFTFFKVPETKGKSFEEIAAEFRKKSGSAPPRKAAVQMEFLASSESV
Test: pull-down; GST pull-down on glutathione-agarose beads; fusion proteins made in E. coli; incubation at 4 °C for 60 min with gentle shaking, 3 washes; detection by chemiluminescence blot

B1: Myc-GnT-IVa fusion protein (GlcNAcT-IVa glycosyltransferase) (enzyme, UniProt Q812G0 1-535)
chain: MRLRNGTVATALVFVTSFLTLSWYTTWQNGKEKLIAYQREFLALKERLRVAEHRISQRSSELNTIVQQFRRAGAETNGSKTALSTISDNTIKLLKELTSKKSLRVPSIYYHLPHLLQNERSLQPAVQIGSGRTGVSIVMGIPTVKREVKSYLVETLHSLIDNLYPEEKLDCVIVVFIGETDLDYVHSVVANLEKEFSREISSGLLEIISPPESYYPDLTNLKETFGDSKERVRWRTKQNLDYCFLMMYAQEKGIYYIQLEDDIIVKQNYFNTIKNFALQLSSEEWMILEFSQLGFIGKMFQAPDLALVVEFILMFYKEKPIDWLLDHILWVKVCNPEKDAKHCDRQKANLRIRFRPSLFQHVGLHSSLSGKIQKLTDKDYMKPLLLKVHVNPPAEVSTSLKVYQGHTLEKTYMGEDFFWAITPTAGDYILFKFDKPVNVESYLFHSGNQEHPGDILLNTTVDVLPLKSDSLEISKETKDKRLEDGYFRIGKFEYGVAEGIVDPGLNPISAFRLSVIQNSAVWAILNEIHIKKVTS
binding: binds
